In paper PMC7226812:
These are yes or no findings as the source states them, for the method shown. Binding seen in cells or lysates may run through a third protein. Some results given as binding are weak or reduced against the parent protein; the word gives no strength.

Amino acid sequences for entries named in this document (tags omitted).
UniProt Q16531: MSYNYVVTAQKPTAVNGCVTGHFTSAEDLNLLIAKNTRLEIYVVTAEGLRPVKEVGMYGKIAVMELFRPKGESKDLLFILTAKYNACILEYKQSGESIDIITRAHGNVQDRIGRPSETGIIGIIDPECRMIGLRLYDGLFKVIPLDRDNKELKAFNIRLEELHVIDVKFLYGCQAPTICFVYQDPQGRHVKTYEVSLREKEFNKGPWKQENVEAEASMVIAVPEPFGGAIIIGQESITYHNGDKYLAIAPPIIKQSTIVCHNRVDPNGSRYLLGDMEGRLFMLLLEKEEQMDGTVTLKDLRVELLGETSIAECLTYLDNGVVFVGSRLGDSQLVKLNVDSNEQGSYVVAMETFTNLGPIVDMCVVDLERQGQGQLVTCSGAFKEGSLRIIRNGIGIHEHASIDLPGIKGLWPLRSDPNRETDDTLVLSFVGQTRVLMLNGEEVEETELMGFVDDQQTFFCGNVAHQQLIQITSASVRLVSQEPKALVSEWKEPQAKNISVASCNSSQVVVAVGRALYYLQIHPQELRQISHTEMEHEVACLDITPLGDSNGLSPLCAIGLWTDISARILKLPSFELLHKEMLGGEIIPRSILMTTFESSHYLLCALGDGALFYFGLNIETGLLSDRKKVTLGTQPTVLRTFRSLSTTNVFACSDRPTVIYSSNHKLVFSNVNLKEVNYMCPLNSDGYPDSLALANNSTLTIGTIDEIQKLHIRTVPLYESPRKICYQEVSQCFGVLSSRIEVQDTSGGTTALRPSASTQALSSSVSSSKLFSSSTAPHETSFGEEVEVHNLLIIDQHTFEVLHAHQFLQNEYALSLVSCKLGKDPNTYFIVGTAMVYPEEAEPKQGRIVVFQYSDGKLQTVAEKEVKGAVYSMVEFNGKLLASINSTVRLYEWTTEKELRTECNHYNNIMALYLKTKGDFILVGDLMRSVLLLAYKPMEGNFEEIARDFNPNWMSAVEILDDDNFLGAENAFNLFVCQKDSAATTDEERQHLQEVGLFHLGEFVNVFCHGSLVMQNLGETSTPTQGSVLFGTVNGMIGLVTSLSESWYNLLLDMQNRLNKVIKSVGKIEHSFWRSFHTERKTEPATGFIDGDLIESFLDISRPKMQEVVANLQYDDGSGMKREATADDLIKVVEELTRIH
UniProt Q13619: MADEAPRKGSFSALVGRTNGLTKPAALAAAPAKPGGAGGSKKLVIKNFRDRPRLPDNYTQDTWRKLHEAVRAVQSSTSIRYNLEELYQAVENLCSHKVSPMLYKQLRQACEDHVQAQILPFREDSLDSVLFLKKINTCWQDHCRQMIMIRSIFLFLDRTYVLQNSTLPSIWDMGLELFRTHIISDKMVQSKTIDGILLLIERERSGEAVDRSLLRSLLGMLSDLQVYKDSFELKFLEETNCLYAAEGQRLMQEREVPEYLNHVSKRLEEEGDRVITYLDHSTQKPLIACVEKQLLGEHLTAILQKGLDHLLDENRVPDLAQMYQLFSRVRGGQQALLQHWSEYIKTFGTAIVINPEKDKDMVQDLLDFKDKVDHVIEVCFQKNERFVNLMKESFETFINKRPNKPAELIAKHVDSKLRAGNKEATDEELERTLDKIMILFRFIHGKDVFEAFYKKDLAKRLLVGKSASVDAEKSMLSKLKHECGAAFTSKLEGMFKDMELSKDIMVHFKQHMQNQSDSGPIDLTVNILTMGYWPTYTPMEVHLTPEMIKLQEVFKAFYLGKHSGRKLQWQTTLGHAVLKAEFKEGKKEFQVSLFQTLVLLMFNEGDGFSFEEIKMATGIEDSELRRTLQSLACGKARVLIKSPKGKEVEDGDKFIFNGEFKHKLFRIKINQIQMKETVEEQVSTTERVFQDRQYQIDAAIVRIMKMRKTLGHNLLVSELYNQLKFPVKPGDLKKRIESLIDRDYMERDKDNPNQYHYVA

Tests used:
[1] = target: DDB1 (plasmid-transfected cells) (UniProt Q16531); test: co-IP
myc-tagged CUL4A = myc-tagged CUL4A (UniProt Q13619); test: co-IP

| Substance | binding [1] | binding (myc-tagged CUL4A) |
| --- | --- | --- |
| 2HA-tagged DCAF8 (from UniProt Q5TAQ9-1 1-597) | binds | binds |
| 2HA-tagged DCAF11 (from UniProt Q8TEB1-1 1-546) | binds | binds |
| 2HA-tagged cereblon (from UniProt Q96SW2-1 1-442) | – | binds |
